# Screening data, single-dose tests

Chains of the proteins cited; added tags and fusions are not shown. Residues count along the entry.
UniProt Q8IDJ8, 1-583: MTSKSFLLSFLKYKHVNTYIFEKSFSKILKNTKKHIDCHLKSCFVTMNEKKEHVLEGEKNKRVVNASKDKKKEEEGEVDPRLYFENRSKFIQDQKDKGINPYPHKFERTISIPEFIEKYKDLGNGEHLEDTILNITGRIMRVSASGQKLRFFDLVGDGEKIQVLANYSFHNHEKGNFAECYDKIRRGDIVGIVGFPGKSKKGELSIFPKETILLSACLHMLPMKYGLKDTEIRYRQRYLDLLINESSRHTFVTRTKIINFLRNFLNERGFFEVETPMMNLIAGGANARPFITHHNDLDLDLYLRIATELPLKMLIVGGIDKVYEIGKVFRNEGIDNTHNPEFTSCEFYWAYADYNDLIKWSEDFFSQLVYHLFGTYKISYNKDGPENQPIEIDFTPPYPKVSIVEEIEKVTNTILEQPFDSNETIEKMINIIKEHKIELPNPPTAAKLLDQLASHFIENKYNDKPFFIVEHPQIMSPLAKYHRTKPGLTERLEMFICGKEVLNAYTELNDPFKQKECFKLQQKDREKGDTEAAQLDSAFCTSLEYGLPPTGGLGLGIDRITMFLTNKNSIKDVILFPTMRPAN
UniProt A4I591, 1-473: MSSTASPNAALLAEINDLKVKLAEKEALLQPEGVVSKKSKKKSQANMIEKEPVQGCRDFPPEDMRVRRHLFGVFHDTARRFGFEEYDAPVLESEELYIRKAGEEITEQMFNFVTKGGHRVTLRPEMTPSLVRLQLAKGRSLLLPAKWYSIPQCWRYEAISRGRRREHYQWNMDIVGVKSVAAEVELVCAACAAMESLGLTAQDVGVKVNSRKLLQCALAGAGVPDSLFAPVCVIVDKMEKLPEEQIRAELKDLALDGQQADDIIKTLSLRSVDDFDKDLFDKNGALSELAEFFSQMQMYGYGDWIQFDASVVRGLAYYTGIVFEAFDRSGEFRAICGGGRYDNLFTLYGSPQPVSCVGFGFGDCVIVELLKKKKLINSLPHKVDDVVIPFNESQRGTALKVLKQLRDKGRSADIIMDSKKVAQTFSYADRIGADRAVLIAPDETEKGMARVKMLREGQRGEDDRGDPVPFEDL

From ChEMBL document CHEMBL3988442, “University of Dundee, Small-Polar-MMV Screening Library” (2021).

T. brucei: 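Whole-parasite assay of Trypanosoma brucei over 72 hours; the read-out is not stated. Compounds at 30 µM. Higher reads as stronger inhibition (inferred: compounds with an IC50 in retests scored well above the rest). Values scatter widely below zero; nearly all retest evidence comes from the higher of the two concentrations used. Of about 64,000 compounds tested this way, about 940 (1.5%) reached 50% or more in at least one test.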
PfKRS1: 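Enzyme assay of the cytosolic lysyl-tRNA synthetase in 384-well plates, read by luminescence. Target: Lysine-tRNA ligase, Plasmodium falciparum 3D7 (UniProt Q8IDJ8). Concentration: 30 µM. Higher reads as stronger inhibition, judged from the few compounds that gave an IC50. Size under these conditions: about 69,000 compounds, about 49 of them at 50% or above in at least one test.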
LiHisRS: 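Enzyme assay of histidyl-tRNA synthetase; the read-out is not stated. Target: Histidine-tRNA ligase, Leishmania infantum (UniProt A4I591). Tested at 30 µM. Higher reads as stronger inhibition (inferred: compounds with an IC50 in retests scored well above the rest). The assay is labelled LdHisRS but filed under L. infantum. About 69,000 compounds were tested under these conditions; 0.6% (about 410) showed 50% or more at least once.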
Toxoplasma: 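Assay of Toxoplasma gondii numbers, read through their beta-galactosidase reporter with a colour substrate. Compounds at 10 µM. Higher reads as fewer parasites (inferred from which compounds were picked for retests). Size under these conditions: about 67,000 compounds, about 260 of them at 50% or above in at least one test.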

The filed quantity is “Percent Effect” (%).
The controls that fix the scale are not given in the record; negative values are as filed.
This is an unselected part of the compounds tested.
A dash means the value is not listed here; it may have been measured.

| SMILES | T. brucei | PfKRS1 | LiHisRS | Toxoplasma |
|---|---|---|---|---|
| `CCOC(=O)N1CCN(C(=O)c2cc(-c3ccc(Cl)cc3Cl)on2)CC1` | - | 1.381 | 14.16 | 5.461 |
| `CCn1cc(CNCC(c2ccc(C)s2)N2CCOCC2)cn1` (configuration not stated) | -22.84 | 4.178 | -2.679 | -50.32 |
| `COCCN1CCOCC2(CCCN(Cc3cccc(F)c3)C2)C1` (configuration not stated) | - | -4.121 | 6.422 | - |
| `CC(C)[C@H]1CN(Cc2ccncc2)C[C@@H]1NC(=O)C1(C#N)CCOCC1` | -22.94 | 0.6723 | 2.381 | -5.123 |
| `COc1ccc(CN2CCO[C@H]3[C@H](OCc4ccncc4)CC[C@@H]32)cc1` | - | 3.936 | 10 | - |
| `CSC(CNS(=O)(=O)c1cnn(C)c1)c1cccc(Cl)c1` (configuration not stated) | 19.11 | 4.311 | 16.67 | 0.4813 |
| `CC1(c2ccccc2)CCC(=O)N(CCN2CCOC2=O)C1` (configuration not stated) | 16.5 | 6.329 | 8.264 | -2.67 |
| `CN(Cc1c(F)cccc1Cl)C(=O)c1cnn(CCN2CCOCC2)c1` | -12.16 | 6.011 | 16 | -9.707 |
| `CCCC(=O)NCc1ccc(N2CCCCC2)cc1` | -3.788 | -2.091 | 18.75 | -10.03 |
| `Cc1cc(C(F)(F)F)nn1C(C)C(=O)Nc1ccncc1` (configuration not stated) | 5.069 | 0.01166 | 13.59 | 2.032 |
| `CCOc1ccc(C2CC(=O)NCc3nc(N)sc32)cc1CO` (configuration not stated) | -8.713 | -0.1849 | 21.92 | 13.48 |
| `CC(C)CC(C)NCc1cccnc1N1CCN(c2ccccn2)CC1` (configuration not stated) | -9.019 | 1.309 | 9.677 | -5.025 |
| `[H][C@]12C[C@H](C(=O)NC)N(C(C)=O)[C@@]1([H])CN(S(=O)(=O)c1ccccc1)C2` | -11.3 | - | - | 19.46 |
| `[H][C@@]12CN(C(=O)NC3CCCC3)C[C@]1(C(=O)O)CN(c1ccc(C)nn1)C2` | -65.85 | - | - | -1.281 |
| `Cc1cc(C(=O)N2C[C@H]3CCC[C@@]3(CO)C2)c2ccc(F)cc2n1` | - | 3.055 | 9.6 | - |
| `COCC1CN(C(=O)c2ccnnc2)Cc2ncnn2C1` (configuration not stated) | -30.04 | 4.793 | 28.77 | 6.088 |
| `CCN1CCN(c2ccc(F)cc2C(C)NCc2ccnn2C)CC1` (configuration not stated) | 31.36 | 2.08 | 11.48 | 0.1739 |
| `COc1ccccc1Oc1ncccc1CNC(=O)[C@H](C)O` | -13.42 | 2.433 | 21.21 | 3.586 |
| `Clc1ccc(C2(CNC3=NCCN3)CC2)cc1` | - | 1.38 | 18.57 | - |
| `COc1ccc2c(c1)nc1n2[C@@H](CNCc2ccccc2)COC1` | -25.2 | -1.553 | 22.22 | 5.431 |
| `CCc1nc2n(n1)CC(NCc1cc(OC)c3c(c1)OCCO3)CC2` (configuration not stated) | - | 2.351 | 13.46 | 11.34 |
| `Cc1nn(C)cc1-c1cncn1CCN(C)C1CCCC1` | - | -0.7919 | 14.29 | - |
| `O=C(c1cccn1Cc1cccs1)N1CCN2CCCCC2C1` (configuration not stated) | - | 5.477 | 25 | 4.433 |
| `Cc1nn(C)cc1CN1CCc2nc(-c3cccnc3)nc(O)c2C1` | 0.6492 | 2.885 | 13.54 | 4.816 |
| `CNC(=O)C(NC(=O)c1nccn2ccnc12)c1ccc(F)c(F)c1` (configuration not stated) | 6.863 | 8.899 | 19.23 | 0 |
| `COCC1CN(C(=O)Cc2ccccn2)Cc2ncnn2C1.O=C(O)C(F)(F)F` (configuration not stated) | -42.12 | - | - | -0.4219 |
| `CS(=O)(=O)c1ccc(CNC(=O)N2CCC(C(N)=O)CC2)cc1` | - | 0.4209 | 8.475 | -6.702 |
| `Cc1nc(C(=O)N2CCCC(n3cncn3)C2)cs1` (configuration not stated) | 24.33 | 5.855 | -2.703 | 1.181 |
| `Cc1ccsc1CN1CCn2c(COc3cccnc3)cnc2C1C` (configuration not stated) | - | 1.536 | 33.66 | - |
| `O=C(c1cc(-n2cccn2)ccc1Cl)N1CCC(N2CCCC2=O)CC1` | -4.766 | 0.6054 | 5.594 | -11.5 |
| `O=C(O)C(F)(F)F.[H][C@@]12CCN(Cc3scnc3C)C[C@]1(C(=O)NCCOC)CCO2` | -81.08 | - | - | -1.129 |
| `O=C(O)C(F)(F)F.O=C(O)C(F)(F)F.[H][C@@]12OCCN(Cc3cc(C)on3)[C@@]1([H])CC[C@H]2OCc1csc(C)n1` | 9.165 | - | - | 2.358 |
| `CN(C)C1Cc2ccccc2N(S(=O)(=O)c2ccc(C#N)cc2)C1` (configuration not stated) | -46.27 | 7.107 | 9.677 | -8.736 |
| `Cc1cc(C(=O)N2CCC3(CC2)C(=O)N(C)CCN3CC(C)C)c(C)o1.O=C(O)C(F)(F)F` | 2.031 | - | - | 3.816 |
| `[H][C@]12CC[C@]([H])(CN(Cc3ccccc3)C1)N(C(=O)c1cnc(SC)nc1)C2` | -64.89 | - | - | 1.861 |
| `COCc1cc(NCc2ccccc2-n2cncn2)ncn1` | -7.647 | 4.613 | 11.39 | 3.404 |
| `CC(NC(=O)N1CCNC(=O)CC1)c1ccc(OC(F)F)cc1` (configuration not stated) | -42.23 | 0.7789 | 12.5 | 24.03 |
| `O=C(CCc1ccco1)NS(=O)(=O)Cc1ccon1` | -12.05 | 3.671 | 10.53 | -9.228 |
| `Cc1nc(C2CN(C)CCO2)cc(N2CCSCC2)n1` (configuration not stated) | -17.12 | -3.78 | 16 | -0.5357 |
| `Cn1nc(C2CCCN(Cc3ccc(F)c(F)c3)C2)c2nccnc21` (configuration not stated) | - | 2.079 | 17.71 | - |
| `CCC(C)NC(=O)Nc1cccc(OCCCC#N)c1` (configuration not stated) | -8.386 | 3.802 | 12.44 | 4.934 |
| `COC(=O)N1CCCC(NC(=O)NCc2csc(C)n2)C1` (configuration not stated) | -14.09 | 4.374 | 13.22 | -16.52 |
| `O=C(O)C(F)(F)F.O=C1CC(c2ccncc2)C2(CCN(C(=O)NC3CC3)CC2)N1` (configuration not stated) | -26.71 | - | - | -4.913 |
| `CNC(=O)C1(c2cnccn2)CCCN1C(=O)c1c(F)cccc1F` (configuration not stated) | -31.88 | 0.2017 | 13.54 | 0.07297 |
| `CCN(CC)c1ncnc2c1CCN(CC1CCOCC1)CC2` | - | 5.035 | 15 | - |
| `Cn1cc(S(=O)(=O)N2CCN(S(=O)(=O)c3ccc(Br)s3)CC2)cn1` | -24.05 | -9.727 | 0 | -14.94 |
| `Cc1ccc(NC(=O)NCC2(N3CCOCC3)CCSC2)c(C)c1` (configuration not stated) | -41.23 | 6.722 | 15.07 | -2.149 |

Some entries from above, unchanged:

Result for CC(NC(=O)N1CCNC(=O)CC1)c1ccc(OC(F)F)cc1 (configuration not stated) was T. brucei: -42.23%; PfKRS1: 0.7789%; LiHisRS: 12.5%; Toxoplasma: 24.03%.
Result for CC(C)CC(C)NCc1cccnc1N1CCN(c2ccccn2)CC1 (configuration not stated) was T. brucei: -9.019%; PfKRS1: 1.309%; LiHisRS: 9.677%; Toxoplasma: -5.025%.
Result for Cc1ccsc1CN1CCn2c(COc3cccnc3)cnc2C1C (configuration not stated) was PfKRS1: 1.536%; LiHisRS: 33.66%.
Result for Cc1cc(C(=O)N2CCC3(CC2)C(=O)N(C)CCN3CC(C)C)c(C)o1.O=C(O)C(F)(F)F was T. brucei: 2.031%; Toxoplasma: 3.816%.